Drawing on PubChem BioAssay AID330 (DTP/NCI, 2004), this text covers T/C and survivor count for 15 compounds.

The list shows only some results of the screen, not a fair sample: it is rich in T/C values a quarter to a half above the control, in often repeated tests (any T/C) and in doses without a T/C. Further doses and runs are listed elsewhere. T/C gives the treated animals as a percentage of the vehicle group. Some doses have a count of surviving animals in place of a T/C: the source files T/C as zero there, which appears to mark a toxic dose or a test without result, not a measured value. Some doses without a T/C left all or most animals alive at the check, yet need not have been tolerated: survival well below the control is almost never listed, so the zero probably covers shortened survival too. Counts of survivors are from the toxicity check (mostly the fifth day) where no day follows; animals may have died later. Schedule codes are those of the source, read here as Q, the interval in days (D) or hours (H), X, the number of doses. Where survival is the endpoint, this PubChem deposit counts one and a half times the control or more as active, and values a quarter to a half above the control carry no call in these data; other NCI protocols may use other cut-offs. Some doses were run more than once; the values are given in rising order. Some T/C values are followed by the survivors on the day toxicity was checked, most often the fifth; without a count, all were alive then.

The test system of the assay is P388 leukemia ip, CD2F1 mice, survival T/C. Put plainly: NCI In Vivo Anticancer Drug Screen. Data for tumor model P388 Leukemia (intraperitoneal) in CD2F1 (CDF1) mice. Conditions: T/C endpoint: median survival time, higher T/C = longer survival.
The mark [1] stands for this setting: dose: 6.25 mg/kg/injection, schedule: Q01DX009 (ip), vehicle: suspension in saline.
Where [2] appears, read: dose: 12.5 mg/kg/injection, schedule: Q01DX009 (ip), vehicle: suspension in saline.
Where [3] appears, read: dose: 25.0 mg/kg/injection, schedule: Q01DX009 (ip), vehicle: saline with Tween-80.
Setting [4] is: dose: 25.0 mg/kg/injection, schedule: Q01DX009 (ip), vehicle: suspension in saline.
[5] abbreviates: dose: 100.0 mg/kg/injection, schedule: Q01DX009 (ip), vehicle: saline.
Setting [6] is: dose: 200.0 mg/kg/injection, schedule: Q01DX009 (ip), vehicle: saline.
The mark [7] stands for this setting: dose: 50.0 mg/kg/injection, schedule: Q01DX009 (ip), vehicle: saline.
[8] abbreviates: dose: 200.0 mg/kg/injection, schedule: Q01DX009 (ip), vehicle: Klucel (hydroxypropylcellulose) (HPC).
[9] abbreviates: dose: 200.0 mg/kg/injection, schedule: Q01DX001 (ip), vehicle: saline with Tween-80.
Where [10] appears, read: dose: 400.0 mg/kg/injection, schedule: Q01DX001 (ip), vehicle: saline with Tween-80.

For `Clc1c(Cl)c(C[P+](CCP(c2ccccc2)c2ccccc2)(c2ccccc2)c2ccccc2)c(Cl)c(Cl)c1C[P+](CCP(c1ccccc1)c1ccccc1)(c1ccccc1)c1ccccc1`, the T/C was 126 % of control (dose: 3.13 mg/kg/injection, schedule: Q01DX009 (ip), vehicle: suspension in saline); 126 % of control under setting [1]; 136 % of control [5 of 6 alive] under setting [2]. Further, the survivor count is given as 0 of 6 under setting [3]; 0 of 6 under setting [4]; 0 of 6 (dose: 50.0 mg/kg/injection, schedule: Q01DX009 (ip), vehicle: saline with Tween-80).
Regarding `Nc1ncnc2c1ncn2C1OC(CO)C(O)C1O` (stereo not drawn), the T/C is 128 % of control (dose: 5.0 mg/kg/injection, schedule: Q03HX016 (ip), vehicle: saline, evaluated on day 5); 128 % of control (dose: 5.0 mg/kg/injection, schedule: Q03HX016 (ip), vehicle: saline, evaluated on day 60); 134 % of control [6 of 7 alive] (dose: 10.0 mg/kg/injection, schedule: Q03HX016 (ip), vehicle: saline, evaluated on day 5); 134 % of control [7 of 8 alive] (dose: 10.0 mg/kg/injection, schedule: Q03HX016 (ip), vehicle: saline, evaluated on day 60); 128 % of control (dose: 12.5 mg/kg/injection, schedule: Q01DX009 (ip), vehicle: saline, evaluated on day 5); 128 % of control (dose: 12.5 mg/kg/injection, schedule: Q01DX009 (ip), vehicle: saline, evaluated on day 60). Besides, the T/C by setting is: (dose: 22.0 mg/kg/injection, schedule: Q01DX009 (ip), vehicle: saline with Tween-80) 127 % of control; (dose: 25.0 mg/kg/injection, schedule: Q01DX009 (ip), vehicle: saline sonified) 133 % of control; under setting [3], 131 % of control; (dose: 25.0 mg/kg/injection, schedule: Q01DX009 (ip), vehicle: saline, evaluated on day 5) 128 % of control; (dose: 25.0 mg/kg/injection, schedule: Q01DX009 (ip), vehicle: saline, evaluated on day 60) 128 % of control; (dose: 33.0 mg/kg/injection, schedule: Q01DX009 (ip), vehicle: saline with Tween-80) 132 % of control. Also, the T/C was 127 % of control (dose: 50.0 mg/kg/injection, schedule: Q01DX009 (ip), vehicle: saline with Tween-80, evaluated on day 5); 140 % of control (dose: 50.0 mg/kg/injection, schedule: Q01DX009 (ip), vehicle: saline with Tween-80, evaluated on day 20); 131 % of control (dose: 50.0 mg/kg/injection, schedule: Q01DX009 (ip), vehicle: saline, evaluated on day 5); 131 % of control (dose: 50.0 mg/kg/injection, schedule: Q01DX009 (ip), vehicle: saline, evaluated on day 60); 139 % of control (dose: 50.0 mg/kg/injection, schedule: Q03HX016 (ip), vehicle: Klucel (hydroxypropylcellulose) (HPC)); 133 % of control (dose: 80.0 mg/kg/injection, schedule: Q01DX009 (ip), vehicle: saline). The T/C was 130 % of control (dose: 100.0 mg/kg/injection, schedule: Q03HX016 (ip), vehicle: Klucel (hydroxypropylcellulose) (HPC)); 131 % of control (dose: 150.0 mg/kg/injection, schedule: Q01DX009 (ip), vehicle: saline sonified); 125 and 137 % of control (dose: 160.0 mg/kg/injection, schedule: Q01DX009 (ip), vehicle: saline); 126 % of control (dose: 177.0 mg/kg/injection, schedule: Q01DX009 (ip), vehicle: saline with Tween-80); 127 % of control under setting [6]; 136 % of control (dose: 300.0 mg/kg/injection, schedule: Q01DX009 (ip), vehicle: saline sonified). The T/C (dose: 320.0 mg/kg/injection, schedule: Q01DX009 (ip), vehicle: saline) was 145 % of control; the T/C (dose: 400.0 mg/kg/injection, schedule: Q01DX009 (ip), vehicle: saline with Tween-80) was 125 % of control; the T/C (dose: 400.0 mg/kg/injection, schedule: Q04DX003 (ip), vehicle: saline sonified) was 130 % of control; the T/C (dose: 600.0 mg/kg/injection, schedule: Q01DX009 (ip), vehicle: saline with Tween-80) is 133 % of control; the T/C (dose: 600.0 mg/kg/injection, schedule: Q04DX003 (ip), vehicle: saline with Tween-80) was 126 % of control. For the same compound, the survivor count reads like this: (dose: 10.0 mg/kg/injection, schedule: Q01DX009 (ip), vehicle: saline) 6 of 6; (dose: 20.0 mg/kg/injection, schedule: Q03HX016 (ip), vehicle: saline) 8 of 8; (dose: 40.0 mg/kg/injection, schedule: Q03HX016 (ip), vehicle: saline) 0 of 8; (dose: 80.0 mg/kg/injection, schedule: Q03HX016 (ip), vehicle: saline) 0 of 8; under setting [5], 7 of 8; (dose: 100.0 mg/kg/injection, schedule: Q04DX003 (ip), vehicle: saline sonified) 5 of 6. For the same compound, the survivor count (dose: 1200.0 mg/kg/injection, schedule: Q01DX009 (ip), vehicle: saline sonified) is given as 5 of 6.
For the compound `[N-]=[N+]=Nc1c2c(nc3ccccc13)CCCC2`, the survivor count (dose: 240.0 mg/kg/injection, schedule: Q01DX005 (ip), vehicle: saline with Tween-80) is reported as 1 of 6.
In the case of `CCOC(=O)C(=O)N(CCCNc1c2ccccc2nc2c(OC)cccc12)CCCNc1c2ccccc2nc2c(OC)cccc12`, the T/C (dose: 5.0 mg/kg/injection, schedule: Q01DX009 (ip), vehicle: water) was 139 % of control. Further, the survivor count (dose: 20.0 mg/kg/injection, schedule: Q01DX009 (ip), vehicle: water) was 4 of 6.
For the compound `CC/C(=N\NS(=O)(=O)c1ccc(C)cc1)c1ccc(OC)c(C)c1`, the survivor count under setting [5] was 4 of 6.
Regarding `NCCc1ccc(OCc2ccccc2)c(OCc2ccccc2)c1`, the survivor count was 0 of 6 under setting [7] and 0 of 6 under setting [5].
Regarding `N=C=S.N=C=S.O=[N+]([O-])O.[Co+3].[NH2-].[NH2-].[NH2-].[NH2-]`, the survivor count was 0 of 6 (dose: 100.0 mg/kg/injection, schedule: Q01DX009 (ip), vehicle: Klucel (hydroxypropylcellulose) (HPC)) and 0 of 6 under setting [8].
On to `O=C(O)c1cccc(O)c1O`, for which the survivor count (dose: 400.0 mg/kg/injection, schedule: Q01DX009 (ip), vehicle: saline) is 0 of 6.
For `COc1cc(=O)cc2n(-c3cc(OC)c(O)c(OC)c3)c3ccccc3nc1-2`, the survivor count under setting [5] is 6 of 6.
Turning to `CC(=O)Nc1ccc(C(=O)O)c(O)c1.CC(=O)Nc1ccc(C(=O)O)c(O)c1.[Cu]`, the survivor count is listed as 0 of 6 (dose: 100.0 mg/kg/injection, schedule: Q01DX001 (ip), vehicle: saline with Tween-80); 0 of 6 under setting [9]; 0 of 6 under setting [10].
In the case of `COc1ccc(C(=O)NCCN2CCN3Cc4[nH]c5ccccc5c4CC3C2)cc1` (stereo not drawn), the survivor count reads like this: under setting [9], 6 of 6; under setting [10], 6 of 6.
As for `COC(=O)Nc1cn2ccc(Sc3ccccc3)cc2n1`, the T/C under setting [8] was 127 and 132 % of control; the T/C (dose: 400.0 mg/kg/injection, schedule: Q01DX009 (ip), vehicle: Klucel (hydroxypropylcellulose) (HPC)) is 133 % of control.
On to `Cn1nc[n+](C)n1`, for which the survivor count under setting [7] is recorded as 5 of 6.
Turning to `CNC(=O)OCc1nn(-c2ccc(Cl)cc2)c(C)c1COC(=O)NC`, the survivor count (dose: 25.0 mg/kg/injection, schedule: Q01DX009 (ip), vehicle: distilled water + Tween-80) was 6 of 6 and the survivor count (dose: 50.0 mg/kg/injection, schedule: Q01DX009 (ip), vehicle: distilled water + Tween-80) is listed as 6 of 6.
For the compound `C[CH](C)[Sn](=[O])[CH](C)C`, the survivor count is given as 1 of 6 under setting [1]; 0 of 6 under setting [2]; 0 of 6 under setting [4]; 0 of 6 under setting [7]; 0 of 6 under setting [5]; 0 of 6 under setting [6].
